This passage reports binding results from patent US20210009685A1 (ALTEOGEN, published 2021).

The chains behind the UniProt entries cited, without tags or fusion partners. Residues count along the entry.
UniProt P15328, residues 25-234: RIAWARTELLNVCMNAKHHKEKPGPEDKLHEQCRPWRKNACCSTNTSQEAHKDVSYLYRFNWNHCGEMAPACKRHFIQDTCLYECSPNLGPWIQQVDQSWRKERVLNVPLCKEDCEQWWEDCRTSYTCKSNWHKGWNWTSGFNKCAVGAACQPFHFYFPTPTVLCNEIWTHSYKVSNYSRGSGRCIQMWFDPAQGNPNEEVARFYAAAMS

Experiment [1] concerns the target T1, FOLR1-Fc (UniProt P15328 25-234, limits assumed).
T1 construct: also called FOLR1 (ELISA coating); not shown: Fc part
Put plainly: ELISA, FOLR1-Fc coated on the plate, antibody titrated. Background: In an ELISA, binding on a coated surface is turned into a signal by an enzyme label.

Experiment [2] deals with T2, Folate receptor alpha (FOLR1) (human, UniProt P15328 25-234, limits assumed).
T2 construct: Antigen printed simply as FOLR1 for the panning, the clone ELISA and the SPR chip; also called human FOLR1; folate receptor-α
Put plainly: screening ELISA of panned phage library clones on FOLR1.

Experiment [3] deals with T1, FOLR1-Fc. Put plainly: ELISA, FOLR1-Fc coated. How it is done: For the purpose of comparing the binding affinities of the primarily selected clones with each other, ELISA was performed at different clone concentrations in the following manner. 25 μL of FOLR1 was added to each well of a 96-well plate at a concentration of 1 μg/mL, coated on the plate at room temperature for 1 hour, and then blocked with 180 μL of 3% skim milk at room temperature for 1 hour. During blocking, samples to be used as primary antibodies were prepared. As primary antibodies, samples selected by screening were used. The samples were diluted to a concentration of 0.1 to 100 nM (0, 0.1, 0.3, 1, 3, 10, 30, and 100 nM) and cold-stored until use. After blocking, 3% skim milk was removed, and 25 μL of the primary antibody was added to each well and allowed to react at room temperature for 1 hour or more. After completion of the reaction, each well was washed three times with PBS-Tween20 (0.1%) buffer. As a secondary antibody, HA-HRP was diluted 3,000-fold with 3% skim milk, and 25 μL of the dilution was added to each well and allowed to react at room temperature for 1 hour or more. After completion of the reaction, each well was washed three times with PBS-Tween20 (0.1%), and 25 μL of substrate TMB was added to each well to confirm color development. After about 5 minutes, 25 μL of 1 M H₂SO₄ was added to each well to stop the reaction, and the absorbance at a wavelength of 450 nm was measured. From the measurement results, the EC (Effector concentration) value was calculated using the GraphPad Prism 7 program.
The measured values are obtained in different experiments for comparison with the parent antibody.

Residue numbers refer to the chain shown, from its start. No constants are given. Whether binding was seen depends on the method and setting. Some results given as binding are weak or reduced against the parent protein; the word gives no strength.

B1: Parent antibody (anti-FOLR1 antibody of US2005/0232919 A1) (antibody, V domains shown)
VH: EVQLVESGGGVVQPGRSLRLSCSASGFTFSGYGLSWVRQAPGKGLEWVAMISSGGSYTYYADSVKGRFAISRDNAKNTLFLQMDSLRPEDTGVYFCARHGDDPAWFAYWGQGTPVTVSS
VL: DIQLTQSPSSLSASVGDRVTITCSVSSSISSNNLHWYQQKPGKAPKPWIYGTSNLASGVPSRFSGSGSGTDYTFTISSLQPEDIATYYCQQWSSYPYMYTFGQGTKVEIK
notes: also called WT
For the molecule B1, in the experiment with FOLR1-Fc [1], the binding result is on record as “binds”.

B2: CDR-H3 library clones B4, B8, C4, C6, C10, G5 (Fab, V domains shown)
VH: B1 VH with P103V
VL: B1 VL
For B2, the binding result in experiment [2] is recorded as “binds”.

B3: CDR-H3 library clone C8 (Fab, V domains shown)
VH: B1 VH with P103I
VL: B1 VL
As to B3, the binding entry in experiment [2] is listed as “binds”.

B4: Modified antibody vAb2 (antibody, V domains shown)
VH: B1 VH
VL: B1 VL with V25A, S28G, I29L, N32S, N33Y, N54S, L55R
notes: Carries modified CDR-L1 and CDR-L2
Regarding B4, in the experiment with FOLR1-Fc [3], the binding entry is given as “binds”.

B5: Modified antibody vAb4 (antibody, V domains shown)
VH: B1 VH
VL: B1 VL with N54S, L55R
notes: Carries modified CDR-L2
With B5, the binding entry with FOLR1-Fc [3] is “binds”.

B6: Modified antibody vAb3 (antibody, V domains shown)
VH: B1 VH
VL: B1 VL with V25A, S28G, I29L, N32S, N33Y
notes: Carries modified CDR-L1
With B6, the binding result in the experiment with FOLR1-Fc [3] was “binds”.

B7: Modified antibody vAb5 (antibody, V domains shown)
VH: B1 VH with P103V
VL: B1 VL
notes: Carries modified CDR-H3
For the molecule B7, the binding entry with FOLR1-Fc [3] is “binds”.

B8: Modified antibody vAb1 (antibody, V domains shown)
VH: B1 VH with P103V
VL: B1 VL with V25A, S28G, I29L, N32S, N33Y, N54S, L55R
notes: Carries modified CDR-H3, CDR-L1 and CDR-L2
Take B8: the binding result in the experiment with FOLR1-Fc [3] and with FOLR1-Fc [1] was “binds” throughout.
